Experimental data reported in PubChem BioAssay AID743402 (Broad Institute, 2014).
Among all 1,200 compounds or so, about 140 (12%) were called active.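 How the source made its calls: active means fitted curve falls past -35% activity change at a dose under twice the top valid dose, in every replicate test; inconclusive means replicate tests disagree on the call; inactive means the rest, including activity in the opposite direction.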 Most of the strongest results are missing from this list.

Assay: restoration of mutant CFTR halide transport – FRT cells, YFP quenching, cherry-pick, dose response (AID 743402);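 further: compounds act as correctors raising surface CFTR-F508del before acute activation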
Details: FRT CFTR-F508del YFP iodide quenching, 24 h, channel opened with forskolin and a potentiator; at 26 µM (top of the series) unless noted

Activity change, negative = more quenching (active), inactive:
CCOC(=O)N1CCN(S(=O)(=O)c2ccc3c(c2)C(C)C(=O)N3)CC1 (configuration not stated) 3.12%, Cc1cc2c(s1)Nc1ccccc1N=C2N1CCN(C)CC1 3.12%, COCCOC(=O)c1[nH]c2c(c1C)C(=O)CC(c1cccs1)C2 (configuration not stated) -5.56%, COc1ccc(NC(=O)N[C@@H]2CC[C@@H](CCn3cc(-c4ccc(F)cc4)nn3)O[C@@H]2CO)cc1 15.8% [at 23.5 µM], Cc1cccc(NC(=O)CN2CCN(C(=O)CN3C(=O)NC4(CC(C)CC(C)(C)C4)C3=O)CC2)c1C (configuration not stated) 13.3%, CC(OC(=O)CCCC(=O)Nc1ccc(F)cc1)C(=O)c1ccccc1 (configuration not stated) 0%, COc1ccc(C2CC(c3cccc(Br)c3)=NN2c2ccc(S(N)(=O)=O)cc2)cc1 (configuration not stated) 8.28%, CCc1cccc(NC(=O)COC(=O)c2cc([N+](=O)[O-])ccc2N2CCOCC2)c1 16.4%, COc1ccc(C(=O)c2ccc(N(C)C)cc2)c(OC)c1 11.1%, CN1c2ccc(-c3ccc(C#N)cc3)cc2[C@H]2[C@H](CCN2S(=O)(=O)c2cccc(F)c2)[C@H]1CO 0%, c1ccc(CCNc2nc(-c3ccccn3)nc3ccccc23)cc1 6.67%, CCOC(=O)c1c(NC(=O)CN2C(=O)NC3(CCC(C)CC3)C2=O)sc(C)c1CC (configuration not stated) 12.5%, O=C(Cc1ccsc1)OCC(=O)c1ccccc1 3.33%, CN(C)c1ccc2c(c1)[C@@H]1C[C@@H](CC(=O)NCc3ccc(Oc4ccccc4)cc3)O[C@H](CO)[C@@H]1O2 10.2%, C[C@@H]1CN([C@@H](C)CO)C(=O)c2cccc(NC(=O)Nc3ccc4c(c3)OCO4)c2O[C@H]1CN(C)S(=O)(=O)c1ccccc1 13.4%, O=C(Nc1ccccc1)c1nc[nH]c1C(=O)Nc1ccccc1F -4.74%, Cc1cccc2c(N=Nc3ccc(S(=O)(=O)Nc4ccc(Cl)cc4)cc3[N+](=O)[O-])c(O)[nH]c12 6.67%, CNC(=O)C1CC(=O)N(c2ccc(OCC(=O)Nc3ccccc3)cc2)C1 (configuration not stated) 6.46%, Clc1ccc(N(CC2CO2)CC2CO2)cc1 (configuration not stated) -16.7%, Fc1ccccc1/C=N/NC(=S)Nc1ccc(Cl)cc1Cl 16.7%, COc1ccc(S(=O)(=O)N2CC[C@@H]3[C@@H](CO)Nc4ccc(C5=CCCCC5)cc4[C@@H]32)cc1 6.46%, Cc1ccc(-c2ccc([C@H]3[C@@H](CO)N4CCCCN(C(=O)Nc5cccc(F)c5)C[C@H]34)cc2)cc1 -3.12%
